Reference: the supplement of paper PMC10849652
This is one part of the list.

By UniProt entry, the sequences of proteins in these tests, tags left out. Where a name states a change or a piece, a line headed by the entry shows the natural chain unless it says otherwise.
UniProt Q15043: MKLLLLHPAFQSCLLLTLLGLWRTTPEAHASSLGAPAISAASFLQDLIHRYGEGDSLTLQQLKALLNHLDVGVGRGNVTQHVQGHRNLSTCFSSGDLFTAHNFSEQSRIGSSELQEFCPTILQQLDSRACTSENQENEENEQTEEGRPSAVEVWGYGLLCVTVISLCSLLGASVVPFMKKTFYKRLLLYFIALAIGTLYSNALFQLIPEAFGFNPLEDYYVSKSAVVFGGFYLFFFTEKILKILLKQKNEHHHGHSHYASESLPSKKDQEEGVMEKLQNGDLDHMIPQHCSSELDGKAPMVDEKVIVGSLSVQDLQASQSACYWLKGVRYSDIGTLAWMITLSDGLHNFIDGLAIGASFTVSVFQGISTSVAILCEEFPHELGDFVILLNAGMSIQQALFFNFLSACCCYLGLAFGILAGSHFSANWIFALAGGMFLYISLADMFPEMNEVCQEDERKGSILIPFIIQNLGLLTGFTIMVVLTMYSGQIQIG
UniProt P53794: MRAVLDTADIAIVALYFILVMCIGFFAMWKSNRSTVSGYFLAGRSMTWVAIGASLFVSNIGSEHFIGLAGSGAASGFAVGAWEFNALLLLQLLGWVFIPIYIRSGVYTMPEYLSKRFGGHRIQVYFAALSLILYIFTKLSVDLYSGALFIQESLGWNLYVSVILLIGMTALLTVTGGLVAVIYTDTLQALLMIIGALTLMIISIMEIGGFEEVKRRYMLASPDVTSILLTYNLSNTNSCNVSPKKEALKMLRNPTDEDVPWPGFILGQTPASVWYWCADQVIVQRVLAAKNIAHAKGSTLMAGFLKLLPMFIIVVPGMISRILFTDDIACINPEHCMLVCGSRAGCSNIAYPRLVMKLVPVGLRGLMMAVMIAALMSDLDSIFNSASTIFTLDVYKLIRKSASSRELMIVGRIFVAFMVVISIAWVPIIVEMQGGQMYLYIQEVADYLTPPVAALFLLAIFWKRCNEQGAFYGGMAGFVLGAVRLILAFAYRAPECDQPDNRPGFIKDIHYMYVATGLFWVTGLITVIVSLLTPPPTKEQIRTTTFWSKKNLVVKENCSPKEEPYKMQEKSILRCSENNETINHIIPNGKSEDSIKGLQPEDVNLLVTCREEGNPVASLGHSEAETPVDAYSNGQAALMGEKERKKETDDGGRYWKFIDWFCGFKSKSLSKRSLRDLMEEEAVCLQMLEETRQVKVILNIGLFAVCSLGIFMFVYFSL
UniProt Q70HW3: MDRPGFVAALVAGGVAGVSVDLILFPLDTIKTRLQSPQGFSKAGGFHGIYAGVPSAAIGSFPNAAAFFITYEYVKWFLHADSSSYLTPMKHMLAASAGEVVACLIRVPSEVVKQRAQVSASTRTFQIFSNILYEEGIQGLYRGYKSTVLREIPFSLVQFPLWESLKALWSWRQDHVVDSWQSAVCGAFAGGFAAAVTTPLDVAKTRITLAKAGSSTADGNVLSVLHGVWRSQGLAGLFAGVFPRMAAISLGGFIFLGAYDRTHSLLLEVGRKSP
UniProt O43808: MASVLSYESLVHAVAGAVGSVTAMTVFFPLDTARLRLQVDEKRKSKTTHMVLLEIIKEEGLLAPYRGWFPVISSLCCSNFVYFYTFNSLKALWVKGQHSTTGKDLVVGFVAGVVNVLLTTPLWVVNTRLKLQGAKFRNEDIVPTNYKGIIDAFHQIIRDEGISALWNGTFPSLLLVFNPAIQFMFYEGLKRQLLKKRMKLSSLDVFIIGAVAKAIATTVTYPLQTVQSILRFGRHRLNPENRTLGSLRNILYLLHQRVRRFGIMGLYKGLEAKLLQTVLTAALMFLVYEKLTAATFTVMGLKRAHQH
UniProt Q9H1N7: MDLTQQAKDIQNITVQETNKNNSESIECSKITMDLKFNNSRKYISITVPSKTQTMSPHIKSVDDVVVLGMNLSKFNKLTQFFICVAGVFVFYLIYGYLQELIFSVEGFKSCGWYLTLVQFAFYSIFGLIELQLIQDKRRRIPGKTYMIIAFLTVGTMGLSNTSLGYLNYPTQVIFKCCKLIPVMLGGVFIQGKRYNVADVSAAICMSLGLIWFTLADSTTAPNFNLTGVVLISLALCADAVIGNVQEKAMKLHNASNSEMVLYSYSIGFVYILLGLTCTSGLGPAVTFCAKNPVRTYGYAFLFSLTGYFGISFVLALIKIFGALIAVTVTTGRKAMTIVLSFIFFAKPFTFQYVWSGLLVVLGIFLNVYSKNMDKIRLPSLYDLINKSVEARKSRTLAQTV
UniProt O76082: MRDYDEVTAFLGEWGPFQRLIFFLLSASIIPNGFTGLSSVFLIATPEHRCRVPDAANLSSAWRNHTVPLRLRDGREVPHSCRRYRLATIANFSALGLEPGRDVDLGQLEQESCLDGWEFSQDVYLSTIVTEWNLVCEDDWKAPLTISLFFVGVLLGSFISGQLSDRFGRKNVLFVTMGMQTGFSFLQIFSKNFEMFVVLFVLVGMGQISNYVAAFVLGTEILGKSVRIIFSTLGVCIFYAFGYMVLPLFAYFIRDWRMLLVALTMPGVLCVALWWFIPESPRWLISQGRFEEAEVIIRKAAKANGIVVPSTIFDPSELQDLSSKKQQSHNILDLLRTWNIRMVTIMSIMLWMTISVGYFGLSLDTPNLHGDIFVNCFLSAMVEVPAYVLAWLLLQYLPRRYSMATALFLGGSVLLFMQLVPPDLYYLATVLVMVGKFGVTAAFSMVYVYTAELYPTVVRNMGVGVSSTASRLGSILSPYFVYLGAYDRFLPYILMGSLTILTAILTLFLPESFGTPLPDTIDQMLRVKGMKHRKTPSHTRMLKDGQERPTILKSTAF
UniProt Q92581: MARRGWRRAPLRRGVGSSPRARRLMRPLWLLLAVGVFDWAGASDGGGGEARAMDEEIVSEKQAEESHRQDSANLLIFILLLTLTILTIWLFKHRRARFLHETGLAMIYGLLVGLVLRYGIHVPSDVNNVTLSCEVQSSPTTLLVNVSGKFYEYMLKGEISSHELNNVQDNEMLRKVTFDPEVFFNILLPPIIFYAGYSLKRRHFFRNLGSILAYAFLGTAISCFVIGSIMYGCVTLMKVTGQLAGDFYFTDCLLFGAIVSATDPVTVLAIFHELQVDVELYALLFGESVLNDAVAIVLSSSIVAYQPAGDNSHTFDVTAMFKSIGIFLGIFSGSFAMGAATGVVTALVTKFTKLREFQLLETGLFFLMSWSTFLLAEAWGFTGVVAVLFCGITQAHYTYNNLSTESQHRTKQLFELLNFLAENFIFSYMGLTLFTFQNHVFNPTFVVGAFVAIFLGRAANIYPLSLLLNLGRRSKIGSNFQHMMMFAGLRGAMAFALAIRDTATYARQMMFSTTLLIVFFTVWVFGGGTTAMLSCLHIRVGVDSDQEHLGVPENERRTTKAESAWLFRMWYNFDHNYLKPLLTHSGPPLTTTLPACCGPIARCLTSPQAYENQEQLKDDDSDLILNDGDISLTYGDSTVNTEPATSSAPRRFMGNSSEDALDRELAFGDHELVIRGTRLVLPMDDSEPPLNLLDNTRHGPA
UniProt P30825: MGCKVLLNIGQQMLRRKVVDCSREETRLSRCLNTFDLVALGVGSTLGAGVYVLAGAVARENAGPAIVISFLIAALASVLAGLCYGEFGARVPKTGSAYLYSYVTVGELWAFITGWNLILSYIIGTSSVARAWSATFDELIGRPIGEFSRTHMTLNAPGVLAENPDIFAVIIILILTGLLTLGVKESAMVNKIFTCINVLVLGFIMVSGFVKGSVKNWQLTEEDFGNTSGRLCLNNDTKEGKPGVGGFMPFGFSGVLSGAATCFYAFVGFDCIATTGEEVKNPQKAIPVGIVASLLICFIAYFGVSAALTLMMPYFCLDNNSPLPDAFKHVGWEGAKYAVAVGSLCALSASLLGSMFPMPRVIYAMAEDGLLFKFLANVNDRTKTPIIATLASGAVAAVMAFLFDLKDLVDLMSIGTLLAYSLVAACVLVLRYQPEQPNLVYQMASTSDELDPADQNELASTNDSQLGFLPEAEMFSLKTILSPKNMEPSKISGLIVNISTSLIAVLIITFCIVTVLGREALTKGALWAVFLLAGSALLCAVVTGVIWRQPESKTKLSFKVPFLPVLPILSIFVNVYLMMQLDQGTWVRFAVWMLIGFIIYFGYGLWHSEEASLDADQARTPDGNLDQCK
UniProt Q9NY26: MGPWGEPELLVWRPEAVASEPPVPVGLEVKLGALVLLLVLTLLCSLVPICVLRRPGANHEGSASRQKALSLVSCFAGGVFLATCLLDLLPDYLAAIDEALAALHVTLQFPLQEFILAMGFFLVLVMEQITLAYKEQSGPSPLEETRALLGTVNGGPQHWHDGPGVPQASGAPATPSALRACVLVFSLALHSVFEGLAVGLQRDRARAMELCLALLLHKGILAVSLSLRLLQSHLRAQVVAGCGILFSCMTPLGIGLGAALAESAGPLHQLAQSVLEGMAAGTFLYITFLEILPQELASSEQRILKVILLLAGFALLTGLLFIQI
UniProt Q6ZP29: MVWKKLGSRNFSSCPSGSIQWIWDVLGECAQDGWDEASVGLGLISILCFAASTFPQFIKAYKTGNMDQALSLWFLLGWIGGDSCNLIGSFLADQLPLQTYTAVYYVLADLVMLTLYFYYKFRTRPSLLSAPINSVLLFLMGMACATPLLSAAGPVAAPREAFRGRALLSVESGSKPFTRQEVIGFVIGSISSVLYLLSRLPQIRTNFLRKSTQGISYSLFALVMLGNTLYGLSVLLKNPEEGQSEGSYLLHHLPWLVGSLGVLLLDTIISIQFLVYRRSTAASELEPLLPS
UniProt Q9Y289: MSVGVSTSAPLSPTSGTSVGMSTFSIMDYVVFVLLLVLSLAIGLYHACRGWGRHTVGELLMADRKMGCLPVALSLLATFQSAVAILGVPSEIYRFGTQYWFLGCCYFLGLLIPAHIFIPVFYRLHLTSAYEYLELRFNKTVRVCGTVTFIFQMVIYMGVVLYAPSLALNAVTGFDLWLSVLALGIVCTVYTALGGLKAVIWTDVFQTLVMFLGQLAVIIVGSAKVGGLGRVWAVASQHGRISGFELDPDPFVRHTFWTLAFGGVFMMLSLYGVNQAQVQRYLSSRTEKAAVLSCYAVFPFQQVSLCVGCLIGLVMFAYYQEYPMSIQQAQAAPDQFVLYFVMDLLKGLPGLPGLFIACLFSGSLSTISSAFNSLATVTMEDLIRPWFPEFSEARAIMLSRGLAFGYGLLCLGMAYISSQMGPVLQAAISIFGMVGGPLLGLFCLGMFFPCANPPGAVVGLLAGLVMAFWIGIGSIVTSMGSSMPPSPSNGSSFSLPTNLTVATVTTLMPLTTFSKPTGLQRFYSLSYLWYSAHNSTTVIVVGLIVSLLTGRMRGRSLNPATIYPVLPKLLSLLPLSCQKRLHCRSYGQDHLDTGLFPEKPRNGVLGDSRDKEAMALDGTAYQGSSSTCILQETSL
UniProt Q5SVS4: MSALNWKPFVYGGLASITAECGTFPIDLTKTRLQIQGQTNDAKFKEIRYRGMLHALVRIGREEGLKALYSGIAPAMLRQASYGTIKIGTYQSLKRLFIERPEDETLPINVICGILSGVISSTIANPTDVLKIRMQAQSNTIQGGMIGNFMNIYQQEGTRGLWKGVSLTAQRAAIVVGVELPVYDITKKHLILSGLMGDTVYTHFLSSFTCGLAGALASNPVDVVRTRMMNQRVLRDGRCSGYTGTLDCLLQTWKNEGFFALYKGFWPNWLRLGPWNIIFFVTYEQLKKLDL
UniProt Q96AG3: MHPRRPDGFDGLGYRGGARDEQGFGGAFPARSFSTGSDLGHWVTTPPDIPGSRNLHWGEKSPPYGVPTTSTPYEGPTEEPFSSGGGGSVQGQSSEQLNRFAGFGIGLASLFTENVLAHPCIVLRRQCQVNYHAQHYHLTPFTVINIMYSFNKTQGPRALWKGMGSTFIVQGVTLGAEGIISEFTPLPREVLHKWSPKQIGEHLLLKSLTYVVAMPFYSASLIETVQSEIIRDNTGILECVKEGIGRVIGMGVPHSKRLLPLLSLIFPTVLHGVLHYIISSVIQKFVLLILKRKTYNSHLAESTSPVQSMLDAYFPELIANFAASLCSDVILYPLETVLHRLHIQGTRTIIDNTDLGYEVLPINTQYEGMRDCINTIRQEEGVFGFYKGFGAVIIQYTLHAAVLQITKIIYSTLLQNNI
UniProt Q92504: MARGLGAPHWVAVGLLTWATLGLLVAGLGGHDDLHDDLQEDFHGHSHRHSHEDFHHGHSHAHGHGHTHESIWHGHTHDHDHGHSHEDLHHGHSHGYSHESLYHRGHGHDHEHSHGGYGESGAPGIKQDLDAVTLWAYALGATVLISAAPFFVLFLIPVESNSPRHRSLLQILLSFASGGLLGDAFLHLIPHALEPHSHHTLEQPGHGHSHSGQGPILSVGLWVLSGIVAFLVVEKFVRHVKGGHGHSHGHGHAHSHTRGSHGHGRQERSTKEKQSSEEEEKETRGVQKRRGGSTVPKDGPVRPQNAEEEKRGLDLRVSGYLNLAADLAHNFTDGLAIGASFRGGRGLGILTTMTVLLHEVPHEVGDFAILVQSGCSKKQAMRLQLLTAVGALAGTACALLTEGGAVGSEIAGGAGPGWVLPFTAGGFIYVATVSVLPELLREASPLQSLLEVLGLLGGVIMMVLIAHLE

compound: NC1(c2ccc(-c3nc4ccn5c(=O)[nH]nc5c4cc3-c3ccccc3)cc2)CCC1; test: log2 fold change, soluble protein after heating vs DMSO (PISA); higher = thermal stabilisation; K562 lysate, 10 uM; active = over 0.2 and 3.5 SD of the protein, either way, in both replicates (recomputed)
In short: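 Values give the log-two fold change in thermal stability against solvent controls, from duplicates. Crude K562 extract at 1 mg/mL protein, made by dounce homogenisation in PBS pH 7.4 with 1 mM MgCl2, was treated with 10 μM compound for 30 min. After 3 min heating across 48°C-58°C, aliquots were pooled, adjusted to 0.5% NP-40 at 4°C and centrifuged at 21,000xg for 90 min. The supernatant was measured by TMTpro 16plex LC-MS/MS with channel sums equalised.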

log2 fold change, inactive:
SLC4A1 (UniProt P02730) 0.021
SLC45A4 isoform 3 (UniProt Q5BKX6) -0.15
SLC35C1 (UniProt Q96A29) 0.069
SLC39A14 (UniProt Q15043) -0.025
SLC7A11 (UniProt Q9UPY5) 0.041
SLC5A3 (UniProt P53794) -0.007
SLC22A23 (UniProt A1A5C7) 0.009
SLC25A33 (UniProt Q9BSK2) 0.013
SLC25A44 (UniProt Q96H78) 0.363
SLC25A26 (UniProt Q70HW3) -0.056
SLC35B4 (UniProt Q969S0) -0.029
SLC25A17 (UniProt O43808) -0.026
SLC35B3 (UniProt Q9H1N7) -0.005
SLC25A51 (UniProt Q9H1U9) -0.069
SLC35F2 (UniProt Q8IXU6) -0.005
SLC26A2 (UniProt P50443) 0.106
SLC48A1 (UniProt Q6P1K1) -0.102
SLC43A1 (UniProt O75387) 0.036
SLC29A2 (UniProt Q14542) -0.021
SLC22A5 isoform 3 (UniProt O76082) -0.149
SLC9A6 isoform 2 (UniProt Q92581) -0.038
SLC3A2 (UniProt F5GZS6) -0.03
SLC52A2 (UniProt Q9HAB3) 0.045
SLC7A1 (UniProt P30825) 0.01
SLC7A6 (UniProt Q92536) -0.074
SLC39A1 (UniProt Q9NY26) 0.076
SLC66A1 (UniProt Q6ZP29) -0.006
SLC5A6 (UniProt Q9Y289) 0.012
SLC25A30 (UniProt Q5SVS4) -0.021
SLC35E1 (UniProt Q96K37) -0.076
SLC25A32 (UniProt Q9H2D1) -0.026
SLC9A8 isoform 2 (UniProt Q9Y2E8) 0.01
SLC2A4 (UniProt P14672) 0.078
SLC30A6 isoform 2 (UniProt Q6NXT4) -0.096
SLC25A46 (UniProt Q96AG3) -0.019
SLC31A1 (UniProt O15431) -0.047
SLC39A7 (UniProt Q92504) -0.04

At a glance, part of the list above.
log2 fold change, inactive:
SLC25A26 (UniProt Q70HW3) -0.056
SLC35B4 (UniProt Q969S0) -0.029
SLC25A17 (UniProt O43808) -0.026
